For at least one compound, name, drawing or mass did not settle the structure.
Tested on: HFD-induced diabetes mice
Assay: HFD-induced diabetes mice, A3334 versus rosiglitazone, one 5-day course
Type: in vivo
From the text: Referring now to FIG. 37A-37E, C57BL/6N mice were fed HFD for 8 weeks to induce diabetes. Then, the mice were maintained on HFD and treated with either 25 mpk A3334 or 25 mpk rosiglitazone (RSG) once per day for next 5 days. Then, the mice were maintained HFD condition without any drug treatments (e.g., A3334 or RSG) for the next several weeks. Rosiglitazone (RSG) is a diabetes drug in thiazolidinedione (TZD) class which works as an insulin sensitizer functioning via binding PPAR in fat cells.
Referring now to FIG. 45A-45F, C57BL/6N mice were induced diabetes by HFD for 8 weeks, and then treated with A3334 (25 mpk) or RSG (25 mpk) once per day for 5 days starting at week 8 under HFD condition. Animals were sacrificed at week 11.

[1] = 25 mpk, 5 days from week 8, sacrifice week 11
[2] = HFD 8 weeks, then 25 mpk once per day for 5 days

`CN(CCOc1ccc(CC2SC(=O)NC2=O)cc1)c1ccccn1` (stereo not shown) [RSG, rosiglitazone, reference compound] was tested, and the liver steatosis [1] was “but not by rosiglitazone”, the “mRNA levels of lipogenesis markers in liver” value [1] was “largely increased by RSG” and the “ALT and AST in blood serum” value [2] was “further enhanced by the RSG treatment”. For the same molecule, the “GTT and ITT” value [2] was “but not with the RSG treatment”, the body weight gain [2] was “showed increased body weight gain” and the “fasting glucose level after termination of drug treatment” value [2] was “quickly increased”. The “CXXC5, β-catenin, crown like structures, PPARγ and macrophage markers” value (HFD 8 weeks, then 25 mpk once per day for 5 days, immunostaining) was “did not induce any of these effects”, the “PPARγ mRNA level” value (white adipose tissue, 25 mpk) was “increased by RSG” and the “mRNA of M1 and M2 macrophage markers” value (white adipose tissue, 25 mpk) was “did not result in these effects”. For the same molecule, the “mRNA of Wnt/β-catenin signaling target genes (Dvl1, Wisp1, Fosl1)” value (white adipose tissue, 25 mpk) was “but not by RSG”.
